From the supplement of paper PMC11006884
Most of the targets with a hit are listed elsewhere, so they are rarer here than in the full data. This is a noisy data set. This is a selection; strong and weak results do not stand in their true shares.

Sequences of proteins named here, by UniProt entry; tags and fusion partners are left off. A change or cut given only in a name is not applied to a line headed by its entry.
UniProt P25789: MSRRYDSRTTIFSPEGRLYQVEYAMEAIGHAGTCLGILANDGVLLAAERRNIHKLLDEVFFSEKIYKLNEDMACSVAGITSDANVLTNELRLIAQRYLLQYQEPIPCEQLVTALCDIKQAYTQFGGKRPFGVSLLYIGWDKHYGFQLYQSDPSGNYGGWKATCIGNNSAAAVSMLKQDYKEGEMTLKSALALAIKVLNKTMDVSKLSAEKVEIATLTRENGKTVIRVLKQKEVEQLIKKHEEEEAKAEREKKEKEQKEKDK
UniProt P21333, whole entry, looked up: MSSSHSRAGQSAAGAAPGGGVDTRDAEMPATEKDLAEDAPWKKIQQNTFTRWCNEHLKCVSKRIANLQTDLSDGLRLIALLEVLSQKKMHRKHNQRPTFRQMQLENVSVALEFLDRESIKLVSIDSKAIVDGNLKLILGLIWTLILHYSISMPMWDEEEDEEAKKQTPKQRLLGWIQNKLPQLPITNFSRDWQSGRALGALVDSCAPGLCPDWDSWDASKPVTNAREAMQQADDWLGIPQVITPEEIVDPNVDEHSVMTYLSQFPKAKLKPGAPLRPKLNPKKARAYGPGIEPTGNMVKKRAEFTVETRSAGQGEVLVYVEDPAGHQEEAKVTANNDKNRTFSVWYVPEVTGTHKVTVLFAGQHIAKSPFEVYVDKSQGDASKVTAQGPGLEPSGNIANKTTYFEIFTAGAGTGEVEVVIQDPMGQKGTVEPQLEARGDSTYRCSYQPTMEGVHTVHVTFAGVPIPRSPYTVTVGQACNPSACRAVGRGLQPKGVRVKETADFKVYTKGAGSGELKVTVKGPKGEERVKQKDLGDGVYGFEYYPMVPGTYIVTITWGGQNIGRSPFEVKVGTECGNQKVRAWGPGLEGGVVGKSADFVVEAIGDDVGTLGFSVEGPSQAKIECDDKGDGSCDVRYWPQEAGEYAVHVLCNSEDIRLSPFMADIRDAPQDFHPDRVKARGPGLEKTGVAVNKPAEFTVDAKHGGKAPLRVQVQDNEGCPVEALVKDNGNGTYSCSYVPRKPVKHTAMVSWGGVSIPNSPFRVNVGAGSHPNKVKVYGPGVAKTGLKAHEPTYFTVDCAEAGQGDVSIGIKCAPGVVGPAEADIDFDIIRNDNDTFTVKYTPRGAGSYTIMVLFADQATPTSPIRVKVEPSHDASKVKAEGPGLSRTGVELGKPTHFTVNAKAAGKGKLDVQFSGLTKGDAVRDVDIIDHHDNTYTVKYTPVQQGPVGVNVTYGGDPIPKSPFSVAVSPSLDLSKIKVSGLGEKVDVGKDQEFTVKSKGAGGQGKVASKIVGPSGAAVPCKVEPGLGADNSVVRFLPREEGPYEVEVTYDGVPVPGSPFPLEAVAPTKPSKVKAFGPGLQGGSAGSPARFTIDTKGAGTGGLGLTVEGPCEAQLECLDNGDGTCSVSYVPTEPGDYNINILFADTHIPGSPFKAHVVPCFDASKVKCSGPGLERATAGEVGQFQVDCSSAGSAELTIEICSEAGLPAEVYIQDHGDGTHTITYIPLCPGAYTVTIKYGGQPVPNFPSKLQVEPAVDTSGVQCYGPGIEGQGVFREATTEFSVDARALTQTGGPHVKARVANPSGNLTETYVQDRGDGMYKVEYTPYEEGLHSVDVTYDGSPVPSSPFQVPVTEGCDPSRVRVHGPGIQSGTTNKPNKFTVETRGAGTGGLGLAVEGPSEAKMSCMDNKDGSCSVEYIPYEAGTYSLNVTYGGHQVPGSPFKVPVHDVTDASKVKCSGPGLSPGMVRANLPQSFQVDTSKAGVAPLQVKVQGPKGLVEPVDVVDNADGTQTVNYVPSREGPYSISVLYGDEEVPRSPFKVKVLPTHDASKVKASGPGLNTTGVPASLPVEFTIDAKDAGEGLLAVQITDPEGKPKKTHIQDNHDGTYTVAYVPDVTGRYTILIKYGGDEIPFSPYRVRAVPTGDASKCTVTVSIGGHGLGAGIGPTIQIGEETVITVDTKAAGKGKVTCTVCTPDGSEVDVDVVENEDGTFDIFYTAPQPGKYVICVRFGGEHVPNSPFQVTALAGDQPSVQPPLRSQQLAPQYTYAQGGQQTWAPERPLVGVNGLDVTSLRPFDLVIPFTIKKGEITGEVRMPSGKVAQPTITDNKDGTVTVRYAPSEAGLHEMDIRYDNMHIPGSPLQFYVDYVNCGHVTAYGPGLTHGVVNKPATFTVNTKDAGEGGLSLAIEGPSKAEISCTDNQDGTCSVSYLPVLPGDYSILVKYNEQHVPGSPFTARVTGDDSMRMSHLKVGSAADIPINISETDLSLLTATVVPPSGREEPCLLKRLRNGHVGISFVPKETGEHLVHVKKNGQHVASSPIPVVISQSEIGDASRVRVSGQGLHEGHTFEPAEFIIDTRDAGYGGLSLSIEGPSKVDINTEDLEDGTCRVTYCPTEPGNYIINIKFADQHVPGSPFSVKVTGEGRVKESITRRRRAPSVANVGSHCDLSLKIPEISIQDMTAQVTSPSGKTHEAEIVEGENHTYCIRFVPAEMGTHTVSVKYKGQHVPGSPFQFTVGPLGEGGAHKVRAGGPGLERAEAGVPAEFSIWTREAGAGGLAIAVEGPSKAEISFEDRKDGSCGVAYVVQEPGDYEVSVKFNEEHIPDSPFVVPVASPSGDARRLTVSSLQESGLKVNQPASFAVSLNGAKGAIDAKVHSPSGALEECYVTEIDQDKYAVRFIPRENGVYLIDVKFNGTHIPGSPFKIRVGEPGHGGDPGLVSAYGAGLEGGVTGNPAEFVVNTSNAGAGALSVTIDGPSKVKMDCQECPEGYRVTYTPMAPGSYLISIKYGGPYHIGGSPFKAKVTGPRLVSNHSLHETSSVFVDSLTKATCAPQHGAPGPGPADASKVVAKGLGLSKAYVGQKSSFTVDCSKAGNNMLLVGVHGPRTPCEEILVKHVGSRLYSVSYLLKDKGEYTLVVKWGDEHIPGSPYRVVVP
UniProt P22392, whole entry: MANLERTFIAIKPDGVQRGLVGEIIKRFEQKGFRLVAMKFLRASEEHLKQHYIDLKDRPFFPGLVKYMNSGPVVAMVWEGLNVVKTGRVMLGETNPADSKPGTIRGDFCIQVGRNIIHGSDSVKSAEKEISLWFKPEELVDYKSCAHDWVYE
UniProt P24752: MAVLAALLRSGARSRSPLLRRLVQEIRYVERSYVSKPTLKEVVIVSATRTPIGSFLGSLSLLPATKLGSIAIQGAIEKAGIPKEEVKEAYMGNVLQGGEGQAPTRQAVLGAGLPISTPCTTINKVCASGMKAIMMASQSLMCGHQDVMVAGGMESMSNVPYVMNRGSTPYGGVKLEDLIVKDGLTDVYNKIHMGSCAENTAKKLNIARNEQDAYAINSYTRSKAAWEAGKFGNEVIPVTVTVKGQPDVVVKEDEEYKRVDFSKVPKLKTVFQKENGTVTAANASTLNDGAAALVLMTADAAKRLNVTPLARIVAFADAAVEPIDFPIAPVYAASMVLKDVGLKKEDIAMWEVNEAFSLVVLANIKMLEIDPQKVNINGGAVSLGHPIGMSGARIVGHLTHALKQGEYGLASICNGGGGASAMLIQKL
UniProt P23528, whole entry, looked up: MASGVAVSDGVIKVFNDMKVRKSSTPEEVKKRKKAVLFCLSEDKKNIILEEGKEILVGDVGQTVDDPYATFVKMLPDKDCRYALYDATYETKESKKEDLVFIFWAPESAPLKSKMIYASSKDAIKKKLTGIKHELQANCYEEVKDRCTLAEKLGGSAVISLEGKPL
UniProt P21359: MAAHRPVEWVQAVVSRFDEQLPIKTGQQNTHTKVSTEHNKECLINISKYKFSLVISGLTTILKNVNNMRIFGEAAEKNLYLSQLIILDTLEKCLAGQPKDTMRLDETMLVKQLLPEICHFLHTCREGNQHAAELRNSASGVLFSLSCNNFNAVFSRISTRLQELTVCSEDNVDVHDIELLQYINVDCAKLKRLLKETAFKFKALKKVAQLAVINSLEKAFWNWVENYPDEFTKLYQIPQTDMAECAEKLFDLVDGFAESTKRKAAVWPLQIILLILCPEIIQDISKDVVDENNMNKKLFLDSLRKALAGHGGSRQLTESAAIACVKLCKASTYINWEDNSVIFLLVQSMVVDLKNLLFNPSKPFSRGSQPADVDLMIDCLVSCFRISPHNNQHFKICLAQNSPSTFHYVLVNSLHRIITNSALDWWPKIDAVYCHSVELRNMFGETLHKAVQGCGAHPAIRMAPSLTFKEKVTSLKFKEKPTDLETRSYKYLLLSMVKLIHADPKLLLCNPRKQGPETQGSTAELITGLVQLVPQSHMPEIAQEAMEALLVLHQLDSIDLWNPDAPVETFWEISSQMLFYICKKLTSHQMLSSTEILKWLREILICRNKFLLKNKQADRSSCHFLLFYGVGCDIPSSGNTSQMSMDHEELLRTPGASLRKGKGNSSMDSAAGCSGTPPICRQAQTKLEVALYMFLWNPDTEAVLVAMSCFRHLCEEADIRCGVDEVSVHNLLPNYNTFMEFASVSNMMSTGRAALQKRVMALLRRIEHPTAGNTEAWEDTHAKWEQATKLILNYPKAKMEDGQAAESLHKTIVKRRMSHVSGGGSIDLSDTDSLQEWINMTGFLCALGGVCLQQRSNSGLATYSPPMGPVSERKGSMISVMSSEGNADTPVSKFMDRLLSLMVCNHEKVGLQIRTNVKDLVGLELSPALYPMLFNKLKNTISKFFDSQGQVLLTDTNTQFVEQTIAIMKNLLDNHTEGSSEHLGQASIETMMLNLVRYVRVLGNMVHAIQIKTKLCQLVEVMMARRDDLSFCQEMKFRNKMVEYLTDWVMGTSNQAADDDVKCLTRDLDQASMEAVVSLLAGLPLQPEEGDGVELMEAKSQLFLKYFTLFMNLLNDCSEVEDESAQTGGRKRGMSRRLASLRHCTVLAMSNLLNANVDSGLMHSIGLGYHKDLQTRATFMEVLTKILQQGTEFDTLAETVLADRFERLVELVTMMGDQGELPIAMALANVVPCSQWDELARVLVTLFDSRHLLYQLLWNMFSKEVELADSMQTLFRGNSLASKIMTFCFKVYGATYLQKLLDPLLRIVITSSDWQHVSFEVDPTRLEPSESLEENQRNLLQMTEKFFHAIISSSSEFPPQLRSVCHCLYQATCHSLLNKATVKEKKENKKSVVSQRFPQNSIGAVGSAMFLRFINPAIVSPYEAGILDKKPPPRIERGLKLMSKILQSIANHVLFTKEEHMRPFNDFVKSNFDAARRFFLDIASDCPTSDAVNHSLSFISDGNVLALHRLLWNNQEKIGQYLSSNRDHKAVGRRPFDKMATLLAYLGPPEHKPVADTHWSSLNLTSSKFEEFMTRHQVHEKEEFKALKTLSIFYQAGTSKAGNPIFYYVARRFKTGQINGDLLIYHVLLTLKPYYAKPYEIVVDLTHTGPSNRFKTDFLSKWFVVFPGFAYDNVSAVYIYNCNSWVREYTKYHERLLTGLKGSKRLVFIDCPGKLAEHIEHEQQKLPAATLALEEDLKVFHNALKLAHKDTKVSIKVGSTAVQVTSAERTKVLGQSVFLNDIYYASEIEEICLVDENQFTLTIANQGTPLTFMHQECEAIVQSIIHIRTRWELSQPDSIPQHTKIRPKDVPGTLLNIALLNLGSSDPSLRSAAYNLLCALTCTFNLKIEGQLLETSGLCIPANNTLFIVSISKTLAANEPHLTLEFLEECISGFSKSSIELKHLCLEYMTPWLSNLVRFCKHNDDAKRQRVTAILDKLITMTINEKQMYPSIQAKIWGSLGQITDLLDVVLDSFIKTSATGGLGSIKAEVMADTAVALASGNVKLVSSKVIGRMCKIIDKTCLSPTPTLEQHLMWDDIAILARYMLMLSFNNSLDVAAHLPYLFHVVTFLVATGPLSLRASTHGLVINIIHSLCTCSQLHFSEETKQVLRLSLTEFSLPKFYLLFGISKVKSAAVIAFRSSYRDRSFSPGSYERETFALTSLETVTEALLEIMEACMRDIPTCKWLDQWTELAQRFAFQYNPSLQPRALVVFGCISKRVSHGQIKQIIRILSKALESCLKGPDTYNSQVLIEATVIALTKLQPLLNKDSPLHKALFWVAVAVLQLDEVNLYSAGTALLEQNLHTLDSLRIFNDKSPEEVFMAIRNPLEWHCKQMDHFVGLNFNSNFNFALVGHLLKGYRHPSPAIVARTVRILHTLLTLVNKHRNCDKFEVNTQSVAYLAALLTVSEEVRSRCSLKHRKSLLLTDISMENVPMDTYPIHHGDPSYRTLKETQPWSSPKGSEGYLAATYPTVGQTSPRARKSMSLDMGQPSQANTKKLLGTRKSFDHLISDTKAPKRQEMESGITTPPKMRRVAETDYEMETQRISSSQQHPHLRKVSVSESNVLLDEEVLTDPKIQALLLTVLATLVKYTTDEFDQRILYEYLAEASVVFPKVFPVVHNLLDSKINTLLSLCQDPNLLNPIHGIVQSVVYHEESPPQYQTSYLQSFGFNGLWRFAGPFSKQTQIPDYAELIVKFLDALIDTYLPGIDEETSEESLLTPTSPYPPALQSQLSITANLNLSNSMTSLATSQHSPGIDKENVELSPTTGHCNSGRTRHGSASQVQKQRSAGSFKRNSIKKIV

compound: COC(=O)/C=C/c1ccccc1 [methyl cinnamate]; assay: log2 ratio of iodoacetamide-alkyne labeling of the cysteine site, DMSO over compound (competition); higher = stronger covalent engagement of the cysteine by the compound, active = 1 or more; settings: 500 µM; treatment time 1 h; system: HEK293T cell lysate
Method in brief: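 For each cysteine, the log2 competition ratio is mean control-channel reporter intensity over mean compound-channel reporter intensity. HEK293T lysate (2 mg/mL) was exposed to vehicle or electrophile (500 µM, 1 h, ambient temperature), labelled with iodoacetamide alkyne (1 h), clicked to sCIP-TMT reagents, digested overnight with trypsin at 37 °C, streptavidin-enriched and analysed by Orbitrap Eclipse LC-MS/MS with FAIMS and FragPipe. Cysteines quantified in only one of three replicates, each with duplicate channels, were excluded.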

log2 ratio of iodoacetamide-alkyne labeling, inactive:
CHM C564 (UniProt P24386) -0.092
PSMA4 C163 (UniProt P25789) 0.196
FLNA C1402 (UniProt P21333) 0.147
GART C646 (UniProt P22102) 0.0886
PML C338 (UniProt P29590) 0.362
CSRP1 C58 (UniProt P21291) 0.0778
GART C41 (UniProt P22102) 0.145
TCEA1 C271 (UniProt P23193) 0.081
U2AF2 C429 (UniProt P26368) 0.132
NME2 C145 (UniProt P22392) 0.00509
PAICS C288 (UniProt P22234) 0.0462
ACAT1 C126 (UniProt P24752) 0.265
ACAT1 C413 (UniProt P24752) 0.175
RPS3 C97 (UniProt P23396) 0.505
TUBG1 C201 (UniProt P23258) 0.114
UBA1 C413 (UniProt P22314) -0.0231
CFL1 C139 (UniProt P23528) 0.553
POLD1 C713 (UniProt P28340) -0.00198
CALR C163 (UniProt P27797) 0.0358
UniProt P28290_C599 0.78
VDAC1 C127 (UniProt P21796) 0.0875
RRM1 C492 (UniProt P23921) 0.285
UniProt P28482_C166 0.177
TPP2 C28 (UniProt P29144) 0.241
LMNB1 C317 (UniProt P20700) 0.274
MAP4 C635 (UniProt P27816) 0.349
WARS C62 (UniProt P23381) 0.0653
APC C914 (UniProt P25054) 0.155
TCP1 C147 (UniProt P17987) 0.315
TKT C41 (UniProt P29401) -0.171
EEF1G C68 (UniProt P26641) 0.14
ACAT1 C196 (UniProt P24752) 0.0906
CSRP1 C167 (UniProt P21291) 0.37
UniProt P25398_C56 0.128
EEF1G C194 (UniProt P26641) 0.0574
ME2 C120 (UniProt P23368) -0.0548
NF1 C383 (UniProt P21359) 0.398

Taken from the entries so far (7 entries):
log2 ratio of iodoacetamide-alkyne labeling, inactive:
NME2 C145 (UniProt P22392) 0.00509
PAICS C288 (UniProt P22234) 0.0462
ACAT1 C126 (UniProt P24752) 0.265
ACAT1 C413 (UniProt P24752) 0.175
RPS3 C97 (UniProt P23396) 0.505
TUBG1 C201 (UniProt P23258) 0.114
UBA1 C413 (UniProt P22314) -0.0231
